The data set in a line: TMTcalibrator quantification of regulated proteins in AD CSF versus control. Further details: species or system human. To be noted: CSF of AD patient versus control; non-modified peptides of each protein summed for three control and three AD cases.

B1: P47972 (protein, UniProt P47972 1-431, looked up)
chain: MLALLAASVALAVAAGAQDSPAPGSRFVCTALPPEAVHAGCPLPAMPMQGGAQSPEEELRAAVLQLRETVVQQKETLGAQREAIRELTGKLARCEGLAGGKARGAGATGKDTMGDLPRDPGHVVEQLSRSLQTLKDRLESLEHQLRANVSNAGLPGDFREVLQQRLGELERQLLRKVAELEDEKSLLHNETSAHRQKTESTLNALLQRVTELERGNSAFKSPDAFKVSLPLRTNYLYGKIKKTLPELYAFTICLWLRSSASPGIGTPFSYAVPGQANEIVLIEWGNNPIELLINDKVAQLPLFVSDGKWHHICVTWTTRDGMWEAFQDGEKLGTGENLAPWHPIKPGGVLILGQEQDTVGGRFDATQAFVGELSQFNIWDRVLRAQEIVNIANCSTNMPGNIIPWVDNNVDVFGGASKWPVETCEERLLDL
modifications: full-length
Turning to B1, the “Log2 AD/Control” value stood at 1.02.

B2: P23515 (protein, UniProt P23515 1-440, looked up)
chain: MEYQILKMSLCLFILLFLTPGILCICPLQCICTERHRHVDCSGRNLSTLPSGLQENIIHLNLSYNHFTDLHNQLTQYTNLRTLDISNNRLESLPAHLPRSLWNMSAANNNIKLLDKSDTAYQWNLKYLDVSKNMLEKVVLIKNTLRSLEVLNLSSNKLWTVPTNMPSKLHIVDLSNNSLTQILPGTLINLTNLTHLYLHNNKFTFIPDQSFDQLFQLQEITLYNNRWSCDHKQNITYLLKWMMETKAHVIGTPCSTQISSLKEHNMYPTPSGFTSSLFTVSGMQTVDTINSLSVVTQPKVTKIPKQYRTKETTFGATLSKDTTFTSTDKAFVPYPEDTSTETINSHEAAAATLTIHLQDGMVTNTSLTSSTKSSPTPMTLSITSGMPNNFSEMPQQSTTLNLWREETTTNVKTPLPSVANAWKVNASFLLLLNVVVMLAV
modifications: full-length
As to B2, the “Log2 AD/Control” value was 0.80.

B3: Q96HC4 (protein, UniProt Q96HC4 1-596, looked up)
chain: MSNYSVSLVGPAPWGFRLQGGKDFNMPLTISSLKDGGKAAQANVRIGDVVLSIDGINAQGMTHLEAQNKIKGCTGSLNMTLQRASAAPKPEPVPVQKGEPKEVVKPVPITSPAVSKVTSTNNMAYNKAPRPFGSVSSPKVTSIPSPSSAFTPAHATTSSHASPSPVAAVTPPLFAASGLHANANLSADQSPSALSAGKTAVNVPRQPTVTSVCSETSQELAEGQRRGSQGDSKQQNGPPRKHIVERYTEFYHVPTHSDASKKRLIEDTEDWRPRTGTTQSRSFRILAQITGTEHLKESEADNTKKANNSQEPSPQLASSVASTRSMPESLDSPTSGRPGVTSLTAAAAFKPVGSTGVIKSPSWQRPNQGVPSTGRISNSATYSGSVAPANSALGQTQPSDQDTLVQRAEHIPAGKRTPMCAHCNQVIRGPFLVALGKSWHPEEFNCAHCKNTMAYIGFVEEKGALYCELCYEKFFAPECGRCQRKILGEVISALKQTWHVSCFVCVACGKPIRNNVFHLEDGEPYCETDYYALFGTICHGCEFPIEAGDMFLEALGYTWHDTCFVCSVCCESLEGQTFFSKKDKPLCKKHAHSVNF
modifications: full-length
On to B3, for which the “Log2 AD/Control” value came to 0.75.

B4: O15240 (protein, UniProt O15240 1-615, looked up)
chain: MKALRLSASALFCLLLINGLGAAPPGRPEAQPPPLSSEHKEPVAGDAVPGPKDGSAPEVRGARNSEPQDEGELFQGVDPRALAAVLLQALDRPASPPAPSGSQQGPEEEAAEALLTETVRSQTHSLPAPESPEPAAPPRPQTPENGPEASDPSEELEALASLLQELRDFSPSSAKRQQETAAAETETRTHTLTRVNLESPGPERVWRASWGEFQARVPERAPLPPPAPSQFQARMPDSGPLPETHKFGEGVSSPKTHLGEALAPLSKAYQGVAAPFPKARRPESALLGGSEAGERLLQQGLAQVEAGRRQAEATRQAAAQEERLADLASDLLLQYLLQGGARQRGLGGRGLQEAAEERESAREEEEAEQERRGGEERVGEEDEEAAEAEAEAEEAERARQNALLFAEEEDGEAGAEDKRSQEETPGHRRKEAEGTEEGGEEEDDEEMDPQTIDSLIELSTKLHLPADDVVSIIEEVEEKRKRKKNAPPEPVPPPRAAPAPTHVRSPQPPPPAPAPARDELPDWNEVLPPWDREEDEVYPPGPYHPFPNYIRPRTLQPPSALRRRHYHHALPPSRHYPGREAQARRAQEEAEAEERRLQEQEELENYIEHVLLRRP
modifications: full-length
On to B4, for which the “Log2 AD/Control” value is given as 1.12.

B5: Q86U38 (protein, UniProt Q86U38 1-636, looked up)
chain: MGQGPRSPHKVGRRFPAGGKRGRGAKGSGRPLPGRKRQPWPPPDGRSEPAPDSHPHLSPEALGYFRRALSALKEAPETGEERDLMVHNIMKEVETQALALSTNRTGSEMLQELLGFSPLKPLCRVWAALRSNLRTVACHRCGVHVLQSALLQLPRLLGSAAEEEEEEEEDGKDGPTETLEELVLGLAAEVCDDFLVYCGDTHGSFVVRTLLQVLGGTILESERARPRGSQSSEAQKTPAQECKPADFEVPETFLNRLQDLSSSFLKDIAVFITDKISSFCLQVALQVLHRKLPQFCAHLCNAVIGYLSTRGSSVDGSPLLLFLRDQTSSRLLEQVLLVLEPPRLQSLFEEHLQGQLQTLAAHPIANFPLQRLLDAVTTPELLSPVFEELSPVLEAVLAQGHPGVVIALVGACRRVGAYQAKVLQLLLEAFHCAEPSSRQVACVPLFATLMAYEVYYGLTEEEGAVPAEHQVAMAAARALGDVTVLGSLLLQHLLHFSTPGLVLRSLGALTGPQLLSLAQSPAGSHVLDAILTSPSVTRKLRRRVLQNLKGQYVALACSRHGSRVLDAIWSGAALRARKEIAAELGEQNQELIRDPFGHHVARNVALTTFLKRREAWEQQQGAVAKRRRALNSILED
modifications: full-length
Take B5: the “Log2 AD/Control” value is recorded as 0.86.

B6: Q9BZF1 (protein, UniProt Q9BZF1 1-889, looked up)
chain: MEGGLADGEPDRTSLLGDSKDVLGPSTVVANSDESQLLTPGKMSQRQGKEAYPTPTKDLHQPSLSPASPHSQGFERGKEDISQNKDESSLSMSKSKSESKLYNGSEKDSSTSSKLTKKESLKVQKKNYREEKKRATKELLSTITDPSVIVMADWLKIRGTLKSWTKLWCVLKPGVLLIYKTQKNGQWVGTVLLNACEIIERPSKKDGFCFKLFHPLEQSIWAVKGPKGEAVGSITQPLPSSYLIIRATSESDGRCWMDALELALKCSSLLKRTMIREGKEHDLSVSSDSTHVTFYGLLRANNLHSGDNFQLNDSEIERQHFKDQDMYSDKSDKENDQEHDESDNEVMGKSEESDTDTSERQDDSYIEPEPVEPLKETTYTEQSHEELGEAGEASQTETVSEENKSLIWTLLKQVRPGMDLSKVVLPTFILEPRSFLDKLSDYYYHADFLSEAALEENPYFRLKKVVKWYLSGFYKKPKGLKKPYNPILGETFRCLWIHPRTNSKTFYIAEQVSHHPPISAFYVSNRKDGFCLSGSILAKSKFYGNSLSAILEGEARLTFLNRGEDYVMTMPYAHCKGILYGTMTLELGGTVNITCQKTGYSAILEFKLKPFLGSSDCVNQISGKLKLGKEVLATLEGHWDSEVFITDKKTDNSEVFWNPTPDIKQWRLIRHTVKFEEQGDFESEKLWQRVTRAINAKDQTEATQEKYVLEEAQRQAARDRKTKNEEWSCKLFELDPLTGEWHYKFADTRPWDPLNDMIQFEKDGVIQTKVKHRTPMVSVPKMKHKPTRQQKKVAKGYSSPEPDIQDSSGSEAQSVKPSTRRKKGIELGDIQSSIESIKQTQEEIKRNIMALRNHLVSSTPATDYFLQQKDYFIIFLLILLQVIINFMFK
modifications: full-length
For the molecule B6, the “Log2 AD/Control” value is on record as 0.78.

B7: Q02818 (protein, UniProt Q02818 1-461, looked up)
chain: MPPSGPRGTLLLLPLLLLLLLRAVLAVPLERGAPNKEETPATESPDTGLYYHRYLQEVIDVLETDGHFREKLQAANAEDIKSGKLSRELDFVSHHVRTKLDELKRQEVSRLRMLLKAKMDAEQDPNVQVDHLNLLKQFEHLDPQNQHTFEARDLELLIQTATRDLAQYDAAHHEEFKRYEMLKEHERRRYLESLGEEQRKEAERKLEEQQRRHREHPKVNVPGSQAQLKEVWEELDGLDPNRFNPKTFFILHDINSDGVLDEQELEALFTKELEKVYDPKNEEDDMREMEEERLRMREHVMKNVDTNQDRLVTLEEFLASTQRKEFGDTGEGWETVEMHPAYTEEELRRFEEELAAREAELNAKAQRLSQETEALGRSQGRLEAQKRELQQAVLHMEQRKQQQQQQQGHKAPAAHPEGQLKFHPDTDDVPVPAPAGDQKEVDTSEKKLLERLPEVEVPQHL
modifications: full-length
B7: the “Log2 AD/Control” value was determined as 0.87.

These data come from patent publication US12419871B2, “Biomolecules involved in Alzheimer's disease” (ELECTROPHORETICS LIMITED, priority 2015, dated 2025).
